Experimental data as given in US6982258B2, “Low-calcemic oxime analogs of 1α,25-dihydroxy vitamin D3” (Cytochroma Inc., priority 2001, dated 2006).
pIC50: −log10 of the molar value. Some of these results come from one statement about several compounds together.

Legend:
CYP27B1 = molecular target: T1, CYP27B1 (UniProt O15528); assay: Assay of CYP1-alpha hydroxylase (using transfected COS-1 cells); format: cell-based; conditions: read-out: IC50, inhibition of CYP27B1
T1 sequence (O15528 1-508): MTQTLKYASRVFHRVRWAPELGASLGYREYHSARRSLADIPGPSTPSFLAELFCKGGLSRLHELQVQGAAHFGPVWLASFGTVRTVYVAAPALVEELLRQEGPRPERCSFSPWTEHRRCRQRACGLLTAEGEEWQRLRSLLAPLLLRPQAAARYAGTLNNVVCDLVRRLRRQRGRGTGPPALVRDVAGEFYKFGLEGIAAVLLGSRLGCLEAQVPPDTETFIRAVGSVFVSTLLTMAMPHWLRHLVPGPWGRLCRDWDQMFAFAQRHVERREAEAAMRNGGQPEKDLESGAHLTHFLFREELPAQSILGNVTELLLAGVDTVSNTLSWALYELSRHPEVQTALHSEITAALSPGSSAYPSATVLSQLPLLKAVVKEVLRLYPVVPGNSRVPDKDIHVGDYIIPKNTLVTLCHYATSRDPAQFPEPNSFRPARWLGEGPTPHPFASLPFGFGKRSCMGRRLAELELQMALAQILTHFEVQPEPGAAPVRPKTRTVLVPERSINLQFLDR

CYP27A1 = molecular target: T2, CYP27A1 (Homo sapiens, UniProt Q02318); assay: CYP27A1 enzyme assay; format: biochemical; conditions: read-out: IC50, inhibition of CYP27A1
T2 construct: fused on or other part: Possibly adrenodoxin reductase and adrenodoxin fused to the C-terminus of P450c27 (the fusion enzyme of Dilworth et al. 1996); It is not settled whether the fusion was used
T2 sequence (Q02318 34-531): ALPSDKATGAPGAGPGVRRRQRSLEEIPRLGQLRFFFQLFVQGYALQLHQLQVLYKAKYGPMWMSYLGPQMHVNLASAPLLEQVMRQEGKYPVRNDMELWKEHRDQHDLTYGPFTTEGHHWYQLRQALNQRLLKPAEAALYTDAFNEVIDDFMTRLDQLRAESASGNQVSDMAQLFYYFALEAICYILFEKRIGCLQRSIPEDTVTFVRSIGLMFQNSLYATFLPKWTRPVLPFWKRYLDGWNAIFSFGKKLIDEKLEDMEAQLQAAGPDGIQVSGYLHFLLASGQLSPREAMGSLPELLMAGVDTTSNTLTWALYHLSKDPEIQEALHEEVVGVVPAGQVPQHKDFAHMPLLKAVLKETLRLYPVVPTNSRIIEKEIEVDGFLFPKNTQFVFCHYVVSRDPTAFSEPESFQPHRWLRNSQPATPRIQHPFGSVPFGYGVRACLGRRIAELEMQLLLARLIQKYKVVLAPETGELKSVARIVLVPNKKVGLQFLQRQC

| Compound | pIC50 (CYP27B1) | pIC50 (CYP27A1) |
| --- | --- | --- |
| C=C1/C(=C\C=C2/CCC[C@]3(C)C([C@H](C)CCC/C(=N\O)C(C)(C)C)=CC[C@@H]23)C[C@@H](O)C[C@@H]1O [I(a)] | < 5.00 | < 5.00 |
| C=C1/C(=C\C=C2/CCC[C@]3(C)C([C@H](C)CCC/C(=N\OC)C(C)(C)C)=CC[C@@H]23)C[C@@H](O)C[C@@H]1O [I(c)] | < 5.00 | < 5.00 |
| C=C1/C(=C\C=C2/CCC[C@]3(C)C([C@H](C)CCC/C(=N\OCC)C(C)(C)C)=CC[C@@H]23)C[C@@H](O)C[C@@H]1O [I(e)] | < 5.00 | < 5.00 |
| C=CCO/N=C(\CCC[C@@H](C)C1=CC[C@H]2/C(=C/C=C3/C[C@@H](O)C[C@H](O)C3=C)CCC[C@]12C)C(C)(C)C [I(g)] | < 5.00 | < 5.00 |
| C=C1/C(=C\C=C2/CCC[C@]3(C)C([C@H](C)CCC/C(=N\Oc4ccccc4)C(C)(C)C)=CC[C@@H]23)C[C@@H](O)C[C@@H]1O [I(i)] | < 5.00 | < 5.00 |
